Reference: paper PMC8096265, “A functional LSD1 coregulator screen reveals a novel transcriptional regulatory cascade connecting R-loop homeostasis with epigenetic regulation” (Nucleic Acids Research, 2021)
These are yes or no findings as the source states them, for the method shown. Some results given as binding are weak or reduced against the parent protein; the word gives no strength. Tags and fused reporters may be left off the sequences shown.

Target: T1, H3K27 15-mer peptide of the synthesized peptide array, trimethylated at K27
T1 sequence (peptide, trimethyl-lysine at K27): LATKAARKSAPATGG
Assay: peptide or protein array; synthesized 15-mer peptide arrays (SPOT synthesis on cellulose membrane) incubated with 50 nM DDX19A-GST in interaction buffer (100 mM KCl, 20 mM HEPES pH 7.5, 1 mM EDTA pH 8, 10% glycerol), 1 h, room temperature; detected with anti-GST antibody; both purified

B1: GST-DDX19A (recombinant full-length DEAD-box helicase 19A) (enzyme, UniProt Q9NUU7 1-478)
chain: MATDSWALAVDEQEAAVKSMTNLQIKEEKVKADTNGIIKTSTTAEKTDEEEKEDRAAQSLLNKLIRSNLVDNTNQVEVLQRDPNSPLYSVKSFEELRLKPQLLQGVYAMGFNRPSKIQENALPMMLAEPPQNLIAQSQSGTGKTAAFVLAMLSRVEPSDRYPQCLCLSPTYELALQTGKVIEQMGKFYPELKLAYAVRGNKLERGQKISEQIVIGTPGTVLDWCSKLKFIDPKKIKVFVLDEADVMIATQGHQDQSIRIQRMLPRNCQMLLFSATFEDSVWKFAQKVVPDPNVIKLKREEETLDTIKQYYVLCSSRDEKFQALCNLYGAITIAQAMIFCHTRKTASWLAAELSKEGHQVALLSGEMMVEQRAAVIERFREGKEKVLVTTNVCARGIDVEQVSVVINFDLPVDKDGNPDNETYLHRIGRTGRFGKRGLAVNMVDSKHSMNILNRIQEHFNKKIERLDTDDLDEIEKIAN
- binding: binds
